# Experimental data taken from US6238904.
# Tested on: HpyCH4III restriction endonuclease (Helicobacter pylori CH4 (NEB#1236))
# Experiment: enzyme reaction in vitro
# Settings: primer extension product of pNEB193, 37 C 1 h, about 0.5 unit enzyme; purified native protein; label: 33P; only the motif is given; variant of HpyCH4III recognition site ACNGT
sequence,measurement,value
ACTGT (double strand) [pNEB193 polylinker HpyCH4III site at position 453 (N = T)],activity on this sequence,active

# For at least one entry, the source does not settle the construct or the ends of the probe.
